Laboratory results: patent publication US20140161807A1
These are yes or no findings as the source states them, for the method shown. For some of these results: In cells and extracts the contact can be indirect. Some binding calls cover weakened binding; strength is not graded here. Sequences can lack the tags named with a protein.

Chains of the proteins cited; added tags and fusions are not shown. Residues count along the entry.
UniProt Q91ZX7, residues 20-4545: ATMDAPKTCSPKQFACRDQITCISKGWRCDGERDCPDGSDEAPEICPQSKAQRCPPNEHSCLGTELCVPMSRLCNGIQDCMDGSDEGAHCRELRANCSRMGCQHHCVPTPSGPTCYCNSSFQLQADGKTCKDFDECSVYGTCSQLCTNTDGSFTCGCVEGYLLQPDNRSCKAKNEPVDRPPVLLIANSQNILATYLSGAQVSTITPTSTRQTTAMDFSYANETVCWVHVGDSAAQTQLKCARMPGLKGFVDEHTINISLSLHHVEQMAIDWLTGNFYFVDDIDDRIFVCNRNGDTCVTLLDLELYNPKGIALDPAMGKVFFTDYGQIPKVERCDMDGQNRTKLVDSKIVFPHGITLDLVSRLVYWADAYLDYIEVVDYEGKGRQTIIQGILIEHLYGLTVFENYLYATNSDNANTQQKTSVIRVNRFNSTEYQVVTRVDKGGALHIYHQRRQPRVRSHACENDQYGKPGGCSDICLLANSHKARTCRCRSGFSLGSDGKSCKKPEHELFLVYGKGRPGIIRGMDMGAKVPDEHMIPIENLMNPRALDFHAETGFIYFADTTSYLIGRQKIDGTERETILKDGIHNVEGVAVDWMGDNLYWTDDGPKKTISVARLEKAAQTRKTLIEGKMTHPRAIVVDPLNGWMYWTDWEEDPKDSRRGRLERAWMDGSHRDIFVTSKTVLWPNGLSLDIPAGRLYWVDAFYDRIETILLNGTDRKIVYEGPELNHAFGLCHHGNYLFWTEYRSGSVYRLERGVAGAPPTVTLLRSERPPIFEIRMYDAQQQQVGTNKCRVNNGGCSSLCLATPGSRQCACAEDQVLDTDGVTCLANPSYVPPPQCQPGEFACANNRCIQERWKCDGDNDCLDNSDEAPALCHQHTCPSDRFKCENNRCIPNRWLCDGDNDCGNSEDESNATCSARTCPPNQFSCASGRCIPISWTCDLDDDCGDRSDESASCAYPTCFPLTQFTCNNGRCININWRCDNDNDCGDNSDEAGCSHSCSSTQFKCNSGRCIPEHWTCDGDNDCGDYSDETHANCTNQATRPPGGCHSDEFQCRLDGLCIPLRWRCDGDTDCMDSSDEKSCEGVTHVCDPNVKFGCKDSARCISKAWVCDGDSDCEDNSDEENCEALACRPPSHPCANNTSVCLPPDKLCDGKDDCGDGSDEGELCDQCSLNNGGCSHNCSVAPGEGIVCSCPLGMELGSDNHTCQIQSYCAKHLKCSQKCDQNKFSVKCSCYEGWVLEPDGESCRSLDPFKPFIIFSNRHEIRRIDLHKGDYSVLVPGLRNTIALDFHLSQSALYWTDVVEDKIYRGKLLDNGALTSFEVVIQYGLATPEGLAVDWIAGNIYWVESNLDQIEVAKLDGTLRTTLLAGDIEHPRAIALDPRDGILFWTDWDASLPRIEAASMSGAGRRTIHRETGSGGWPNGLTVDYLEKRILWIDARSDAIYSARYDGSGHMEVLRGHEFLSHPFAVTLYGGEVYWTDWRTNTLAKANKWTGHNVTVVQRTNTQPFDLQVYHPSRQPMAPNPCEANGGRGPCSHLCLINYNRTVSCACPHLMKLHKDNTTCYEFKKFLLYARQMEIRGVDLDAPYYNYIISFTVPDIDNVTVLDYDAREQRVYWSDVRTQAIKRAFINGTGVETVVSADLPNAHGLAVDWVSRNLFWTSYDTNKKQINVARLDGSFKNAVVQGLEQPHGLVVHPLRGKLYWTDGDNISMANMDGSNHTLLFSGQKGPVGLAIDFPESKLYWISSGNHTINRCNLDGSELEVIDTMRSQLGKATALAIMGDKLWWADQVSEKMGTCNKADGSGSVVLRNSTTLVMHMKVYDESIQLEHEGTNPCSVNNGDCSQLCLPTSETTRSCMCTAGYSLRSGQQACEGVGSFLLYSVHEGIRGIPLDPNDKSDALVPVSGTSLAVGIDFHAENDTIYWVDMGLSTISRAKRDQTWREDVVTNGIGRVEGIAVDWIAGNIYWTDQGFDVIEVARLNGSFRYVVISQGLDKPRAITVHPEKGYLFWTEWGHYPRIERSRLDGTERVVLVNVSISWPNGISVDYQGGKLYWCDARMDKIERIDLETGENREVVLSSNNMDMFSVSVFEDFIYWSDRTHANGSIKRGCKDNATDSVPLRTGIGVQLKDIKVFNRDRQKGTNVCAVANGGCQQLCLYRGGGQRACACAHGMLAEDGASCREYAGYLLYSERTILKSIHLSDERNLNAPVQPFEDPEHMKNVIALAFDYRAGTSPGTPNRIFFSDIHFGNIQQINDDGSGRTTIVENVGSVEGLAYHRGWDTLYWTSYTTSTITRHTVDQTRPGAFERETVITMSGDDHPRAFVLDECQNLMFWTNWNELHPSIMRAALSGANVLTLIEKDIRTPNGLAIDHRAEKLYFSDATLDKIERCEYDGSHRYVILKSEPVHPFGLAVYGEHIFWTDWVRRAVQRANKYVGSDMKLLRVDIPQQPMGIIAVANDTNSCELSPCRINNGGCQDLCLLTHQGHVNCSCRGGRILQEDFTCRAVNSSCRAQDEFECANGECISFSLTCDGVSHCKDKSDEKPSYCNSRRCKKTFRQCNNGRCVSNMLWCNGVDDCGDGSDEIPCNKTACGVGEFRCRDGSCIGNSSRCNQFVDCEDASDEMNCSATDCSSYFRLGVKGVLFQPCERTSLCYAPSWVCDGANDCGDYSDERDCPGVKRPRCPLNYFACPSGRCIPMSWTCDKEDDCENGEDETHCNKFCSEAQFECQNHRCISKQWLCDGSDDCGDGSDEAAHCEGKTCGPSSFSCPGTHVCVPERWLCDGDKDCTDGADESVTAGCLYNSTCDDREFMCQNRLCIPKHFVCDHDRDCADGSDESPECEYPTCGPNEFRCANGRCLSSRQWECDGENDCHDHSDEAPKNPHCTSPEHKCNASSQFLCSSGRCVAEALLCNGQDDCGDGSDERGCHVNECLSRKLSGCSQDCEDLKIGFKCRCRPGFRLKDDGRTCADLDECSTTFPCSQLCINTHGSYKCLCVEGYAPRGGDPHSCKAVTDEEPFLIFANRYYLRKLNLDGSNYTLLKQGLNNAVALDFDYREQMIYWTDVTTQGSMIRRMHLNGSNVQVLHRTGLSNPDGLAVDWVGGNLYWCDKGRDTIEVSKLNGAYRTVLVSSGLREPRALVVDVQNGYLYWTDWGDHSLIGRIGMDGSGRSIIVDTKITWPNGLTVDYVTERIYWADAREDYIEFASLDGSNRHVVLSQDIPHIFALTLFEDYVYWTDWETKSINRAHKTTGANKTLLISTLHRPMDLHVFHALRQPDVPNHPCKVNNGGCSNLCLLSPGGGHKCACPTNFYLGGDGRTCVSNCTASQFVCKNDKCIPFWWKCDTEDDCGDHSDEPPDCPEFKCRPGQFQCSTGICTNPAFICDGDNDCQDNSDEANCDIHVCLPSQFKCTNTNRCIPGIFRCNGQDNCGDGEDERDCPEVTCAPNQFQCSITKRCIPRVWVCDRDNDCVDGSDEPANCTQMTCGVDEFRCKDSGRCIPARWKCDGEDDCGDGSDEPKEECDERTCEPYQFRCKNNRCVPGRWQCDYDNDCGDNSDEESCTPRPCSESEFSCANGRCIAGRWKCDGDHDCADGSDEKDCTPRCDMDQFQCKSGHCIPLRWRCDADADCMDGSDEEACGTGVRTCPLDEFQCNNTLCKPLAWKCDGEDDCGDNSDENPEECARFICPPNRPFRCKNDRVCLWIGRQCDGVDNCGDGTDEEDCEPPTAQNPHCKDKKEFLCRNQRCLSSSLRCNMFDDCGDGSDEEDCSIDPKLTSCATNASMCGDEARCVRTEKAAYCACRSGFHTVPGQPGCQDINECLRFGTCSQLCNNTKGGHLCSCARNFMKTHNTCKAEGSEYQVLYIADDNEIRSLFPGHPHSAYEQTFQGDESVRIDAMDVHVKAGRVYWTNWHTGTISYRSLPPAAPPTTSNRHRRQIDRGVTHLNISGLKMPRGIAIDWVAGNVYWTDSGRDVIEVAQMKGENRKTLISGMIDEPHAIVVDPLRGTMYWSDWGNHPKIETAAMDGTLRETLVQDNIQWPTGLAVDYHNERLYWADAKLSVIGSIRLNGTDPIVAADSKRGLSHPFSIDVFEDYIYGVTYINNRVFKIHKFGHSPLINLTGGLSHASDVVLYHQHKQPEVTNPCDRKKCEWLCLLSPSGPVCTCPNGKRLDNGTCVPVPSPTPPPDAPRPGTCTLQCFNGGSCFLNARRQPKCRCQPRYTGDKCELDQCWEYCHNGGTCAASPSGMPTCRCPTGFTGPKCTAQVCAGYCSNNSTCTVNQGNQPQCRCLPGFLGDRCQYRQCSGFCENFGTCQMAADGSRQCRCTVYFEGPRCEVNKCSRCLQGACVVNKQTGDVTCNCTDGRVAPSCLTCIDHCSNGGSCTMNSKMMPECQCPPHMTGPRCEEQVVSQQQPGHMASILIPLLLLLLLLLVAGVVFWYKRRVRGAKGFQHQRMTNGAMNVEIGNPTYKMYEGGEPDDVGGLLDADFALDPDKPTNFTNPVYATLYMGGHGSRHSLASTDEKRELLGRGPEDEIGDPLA

How the values were obtained:
[1] = biological target: Full-length LRP1 purified from rat liver (rat) (UniProt G3V928); assay: MAG-Fc on Protein A-Sepharose incubated with purified LRP1, immunoblot for LRP1
[2] = biological target: CII-Fc (second cluster of complement-like repeats of human LRP1, amino acids 804-1185, as Fc fusion protein) (human) (UniProt Q07954); assay: dot blot: 1 µg CII-Fc on nitrocellulose, MAG-Fc in solution, MAG-specific antibody
[3] = biological target: CIV-Fc (fourth cluster of complement-like repeats of human LRP1, amino acids 3331-3778, as Fc fusion protein) (human) (UniProt Q07954); assay: dot blot: 1 µg CIV-Fc on nitrocellulose, MAG-Fc in solution, MAG-specific antibody
[4] = biological target: LRP1 of mouse N2a neuroblastoma cells (full-length LRP1 in N2a cell extracts and on N2a cells) (mouse) (UniProt Q91ZX7); assay: pull-down from N2a cell extracts with MAG-Fc on Protein A-Sepharose, immunoblot for LRP1
[5] = biological target: LRP1 in extracts of N20.1 oligodendroglial cells (UniProt Q91ZX7); assay: co-precipitation of LRP1 with MAG-Fc from extracts of N20.1 cells, 48 or 72 h after p75NTR siRNA
[6] = biological target: LRP1 in extracts of N20.1 oligodendroglial cells (UniProt Q91ZX7); assay: co-precipitation of LRP1 with MAG-Fc from extracts of N20.1 cells, 48 and 72 h after p75NTR siRNA
[7] = biological target: LRP1 in extracts of N20.1 oligodendroglial cells (UniProt Q91ZX7); assay: affinity precipitation from N20.1 cell extracts with MAG-Fc on Protein A-Sepharose, immunoblot for LRP1

- binding [1]: binds
- binding [2]: binds
- binding [3]: binds
- binding [4]: binds
- binding [5]: binds
- binding [6]: binds
- binding [7]: binds
B1: MAG-Fc (full length rat MAG expressed as Fc fusion protein) (Fc fusion, UniProt P07722 20-516, looked up, not shown: a dimerising Fc or GST)
chain: GHWGAWMPSSISAFEGTCVSIPCRFDFPDELRPAVVHGVWYFNSPYPKNYPPVVFKSRTQVVHESFQGRSRLLGDLGLRNCTLLLSTLSPELGGKYYFRGDLGGYNQYTFSEHSVLDIINTPNIVVPPEVVAGTEVEVSCMVPDNCPELRPELSWLGHEGLGEPTVLGRLREDEGTWVQVSLLHFVPTREANGHRLGCQAAFPNTTLQFEGYASLDVKYPPVIVEMNSSVEAIEGSHVSLLCGADSNPPPLLTWMRDGMVLREAVAESLYLDLEEVTPAEDGIYACLAENAYGQDNRTVELSVMYAPWKPTVNGTVVAVEGETVSILCSTQSNPDPILTIFKEKQILATVIYESQLQLELPAVTPEDDGEYWCVAENQYGQRATAFNLSVEFAPIILLESHCAAARDTVQCLCVVKSNPEPSVAFELPSRNVTVNETEREFVYSERSGLLLTSILTLRGQAQAPPRVICTSRNLYGTQSLELPFQGAHRLMWAKIGP
modifications: radioiodinated (125I) in the internalization assay only
